Molecular target: MAPK14 (UniProt Q16539)
Assay: Inhibition of MAPK14 Kinase Activity

Amino acid sequences for entries named in this document (tags omitted).
UniProt Q16539, whole entry, looked up: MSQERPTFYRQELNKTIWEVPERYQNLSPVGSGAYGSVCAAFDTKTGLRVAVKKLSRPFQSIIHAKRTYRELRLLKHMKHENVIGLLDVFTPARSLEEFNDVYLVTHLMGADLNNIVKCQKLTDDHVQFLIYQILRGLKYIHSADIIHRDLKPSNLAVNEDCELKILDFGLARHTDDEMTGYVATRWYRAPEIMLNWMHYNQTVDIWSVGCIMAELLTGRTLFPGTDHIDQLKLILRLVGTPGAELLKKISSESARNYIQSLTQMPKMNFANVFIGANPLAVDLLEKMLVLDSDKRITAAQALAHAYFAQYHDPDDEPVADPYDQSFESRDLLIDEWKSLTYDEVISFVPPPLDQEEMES

COC(=O)Cn1ncc2cc(-c3cc(C(=O)NC4CC4)ccc3C)ccc21
IC50: < 10 µM

From the Kinase Knowledgebase extract (Sharma et al. 2016)
